Results taken from PubChem BioAssay AID1259415 (National Center for Advancing Translational Sciences (NCATS), 2018).
Where “and” joins values, the source holds several entries; their conditions need not be identical. Equal values may be shown once. The whole screen tested about 410,000 compounds, of which about 18,000 (4.4%) were called active. Inconclusive means that the source gave no clear call. Such entries were picked first, then a sample of the others. Rule as the data show it: active = activity change below about -60%; inconclusive = no clear call, values can overlap the other calls; inactive = above about -39%.

Experiment: qHTS Assay for inhibitors of the human cytomegalovirus (HCMV)
Settings: HFF cells, HCMV-luciferase reporter, 72 h; at 57.5 µM; hits give low values
Summary of the method: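 Cell-based, HFFs, 1000 cells/well, 16 h 37C; cpds in DMSO + HCMV-luc, MOI 1 PFU/cell; 72 h 37C; OneGlo luminescence after 5 min RT; norm. to buffer vs Salinomycin 10uM.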
% is scaled to controls: 0 for no effect and ±100 for the full control effect.

| SMILES | activity change, negative = inhibition |
| --- | --- |
| CC(=O)Nc1ccc(-c2csc(Nc3ncccn3)n2)cc1 | inactive: 0% |
| COc1ccccc1N1CCN(c2ncnc3c2cnn3-c2ccc(C)cc2)CC1 | inconclusive: -40.2% |
| O=C(c1cnn(C(=O)COc2ccc(Cl)cc2)c1)c1ccccc1O | inconclusive: -58.6% |
| O=C(Nc1cccc(F)c1)c1cc(S(=O)(=O)N2CCC3(CC2)OCCO3)ccc1F | inconclusive: -43.5% |
| CN(CC(=O)Nc1ccccc1Br)C(=O)CNC(=O)c1ccc(Oc2ccccc2)cc1 | active: -63% |
| C/C(=N\Nc1ncc(Cl)cc1Cl)c1ccc(N2CCOCC2)cc1 | inactive: -30.6% |
| COc1cccc2c(=O)n(CC(=O)Nc3cccc(F)c3)ccc12 | inconclusive: -41.5% |
| CCCCCn1ccc(=O)c2c(C(F)(F)F)nccc21 | active: -66.2% |
| COc1ccc(C(=O)Nc2ccc(OC)c([N+](=O)[O-])c2)cc1Br | inconclusive: -49.2% |
| CCCN1CCN(C(=O)Nc2ccc(C(=O)OCC)cc2)CC1 | inactive: -5.95% |
| Cc1nc2nc(C)c(CCC(=O)NCc3ccc4c(c3)OCO4)c(C)n2n1 | inactive: 12.7% |
| O=C1N2CCSC2=NC1(NS(=O)(=O)c1ccccc1)C(F)(F)F (configuration not stated) | inactive: -0.678% |
| Cc1ccc(S(=O)(=O)NC(=O)C2(C)CCN2C(=O)Cc2ccc(Cl)cc2Cl)cc1 (configuration not stated) | inactive: -14.4% |
| COc1ccc(NC(=O)c2cc3c([nH]c4ccccc43)c(C)n2)cc1 | inactive: -7.71% |
| Cc1cc(/C=N/NC(=O)c2cccs2)c(C)n1-c1ccccc1 | inconclusive: -49.7% |
| COCCCNCC(=O)c1c(N)n(Cc2ccccc2)c(=O)n(C)c1=O | inactive: 17% |
| CCOc1nc2ccccc2cc1C=O | active: -72.9% |
| CCOC(=O)c1ccccc1NC(=O)CN1C(=O)CC(c2ccccc2)Sc2ccccc21 (configuration not stated) | inconclusive: -57.5% |
| S=C(Nc1ccc(Cl)cc1Cl)NC1CCN(Cc2ccccc2)CC1 | inconclusive: -58.4% |
| COc1ccc(C(=O)Nc2ccc(N3CCCCCC3)cc2)cc1S(=O)(=O)N1CCOCC1 | active: -85.7% |
| Cc1cccc(-c2nc3scc(CCNS(=O)(=O)c4ccc(F)c(C(F)(F)F)c4)n3n2)c1 | inactive: -5.12% |
| Cc1ccc(C(=O)Nc2ccc(C(=O)O)cc2)cc1S(=O)(=O)N1CCC(C)CC1 | inactive: -11.1% |

| SMILES | activity change, negative = inhibition |
| --- | --- |
| CCCCOc1ccc(C(=O)NCc2cn3cccc(C)c3n2)cc1 | inactive: 7.73% |
| CC(C)Sc1nc2ccc(Br)cc2[nH]1 | active: -102% |
| CCOC(=O)c1c(NC(=O)C[n+]2ccccc2)sc2c1CCCC2 | inconclusive: -41.8% |
| Cc1cccc(CN2CCN(CC(=O)NCCc3ccc(Cl)cc3)C2=O)c1 | inactive: -12.3% |
| COc1ccccc1-c1cc(C(=O)N2CCCc3ccccc32)no1 | inconclusive: -49.1% |
| CCOC(=O)N1CCC2(CC1)C(C#N)=C(N)Oc1c2c(C)nn1-c1cccc(Cl)c1 | inconclusive: -52.3% |
| Cn1nnnc1Sc1ncnc2scc(-c3ccccc3)c12 | active: -67.1% |
| O=C(CSc1nc(-c2ccco2)cc(C(F)(F)F)n1)NCCCn1ccnc1 | inconclusive: -42.5% |
| Cc1ccc(NS(=O)(=O)c2ccc(C(=O)N3CCN(S(=O)(=O)c4ccccc4)CC3)cc2)cc1 | inconclusive: -49.1% |
| C=CC[C@H]1C=C[C@@H](C(C(=O)OC)C(=O)OC)CN1C(C)=O | inactive: -4.24% |
| O=c1cc(O)c2c(=O)n(Cc3ccccc3)c3ccccc3c2o1 | inconclusive: -48.1% |
| CCCOc1ccc(C(=O)NCC2OCCc3ccccc32)cc1OC (configuration not stated) | inconclusive: -44.9% |
| COc1cccc(NC(=O)CCc2nnc3ccc(N4CCC(C)CC4)nn23)c1 | inconclusive: -40.7% |
| Nc1nc(CN2CCN(c3ccccc3)CC2)nc(Nc2ccc(Cl)cc2)n1 | active: -65.2% |
| COc1ccc(OC)c(NC(=O)c2cccc(N3C(=O)C4C5C=CC(C6CC56)C4C3=O)c2)c1 (configuration not stated) | inconclusive: -52.9% |
| Brc1ccc(OCCOCCOc2cccc3cccnc23)cc1 | inconclusive: -44.1% |
| c1cnc2ccc(-n3ccnc3)cc2c1 | inconclusive: -56.1% |
| COc1cccc(C(=O)c2cn(CC(=O)NCc3ccco3)c3nc(C)ccc3c2=O)c1 | inactive: -7.24% |
| CCc1ccc(-c2nc(SCC(=O)NC3CCCC3)n[nH]2)cc1 | active: -90.7% |
| Cc1sc2ncnc(N3CCC(C(=O)NNC(=O)COc4ccc(Br)cc4)CC3)c2c1C | inconclusive: -42% |
| COc1ccc(CC(C)CC(=O)NCCc2ccc(OC)c(OC)c2)cc1 (configuration not stated) | active: -60.6% |
| N#Cc1ccc(CN2CCN(C(=O)c3ccc(S(=O)(=O)N4CCCCCC4)cc3)CC2)cc1 | active: -78.1% |

| SMILES | activity change, negative = inhibition |
| --- | --- |
| Fc1ccc(CNC(=S)Nc2ccccc2Cl)cc1 | inconclusive: -40.6% |
| CCCC(=O)Nc1nc(C(=O)OCC)cs1 | inactive: 41.7% |
| COc1ccc(/C=N/Nc2cc(C)nc(-n3nc(C)cc3C)n2)c(OC)c1 | active: -98.2% |
| O=[N+]([O-])c1ccc(C[n+]2c(-c3ccccc3)cc(-c3ccccc3)cc2-c2ccccc2)cc1 | active: -62.7% |
| O=C(CCC1CCCN(C(=O)Cc2cccc(F)c2)C1)N1CCN(c2ccccn2)CC1 (configuration not stated) | inconclusive: -46.8% |
| O=[N+]([O-])c1ccc(/C=N\NS(=O)(=O)c2ccc(F)cc2)o1 | inactive: -3.91% |
| CCN(CC)CCn1c(=N)n(CC(=O)c2ccc(Br)s2)c2ccccc21 | active: -97.4% |
| O=c1c2c(ncn1Cc1ccccc1)nc1n2CCC1 | inconclusive: -45.5% |
| CCCCc1nc2ccccc2c(N)c1CCC (tested in a mixture with another compound) | active: -67.8% |
| O=S(=O)(NCC(c1ccco1)N1CCN(c2ccccc2)CC1)c1cc(F)ccc1F (configuration not stated) | inconclusive: 0% |
| CSc1ccccc1OCc1cc(C(=O)N2CCC(Oc3cccnc3)CC2)no1 | inconclusive: -56.7% |
| Cc1cccc(C)c1-n1nnnc1C(c1ccnc2ccccc12)N(Cc1ccccc1)Cc1ccccc1 (configuration not stated) | active: -72% |
| CCCOc1ccc(C(=O)N2CCC(c3nc4ccccc4s3)CC2)cc1 | inactive: 4.56% |
| CCc1ccc(NC(=O)N2CCN(C(=O)C3CCCO3)CC2)cc1 (configuration not stated) | inactive: -3.04% |
| Cc1ccc(C)c(OCCn2cc(/C=C(\C#N)C(=O)NCc3ccco3)c3ccccc32)c1 | inactive: 37.2% |
| CCCCNc1oc(-c2ccc(OC)cc2)nc1S(=O)(=O)c1ccccc1 | inactive: -29.9% |
| O=C(O)C1CCN(C(=O)CSc2nc3cc(Cl)ccc3c(=O)n2Cc2ccccc2)CC1 | inactive: -31.2% |
| Cc1cccc(C)c1N1CCN(c2n[nH]c(N)n2)CC1 | inconclusive: -45.8% |
| O=C(OCc1nc2ccc(Cl)cc2n1CCO)c1ccccc1C(=O)c1ccccc1 | inconclusive: -48.2% |
| Cc1cn([C@H]2C[C@H](O)[C@@H](CCC(=O)NCCc3ccc4ccccc4c3)O2)c(=O)[nH]c1=O | inactive: -5.8% |
| CC[C@@H](C)[C@@H]1CN([C@@H](CN2CCC[C@H]2CN2C(N)=NC[C@H]2C(C)C)C(C)C)C(=N)N1CCCC1CCCC1 | inconclusive: -53.3% |
| CCOC(=O)c1ccccc1NC(=O)c1cc2ccc3cccnc3c2[nH]1 | inconclusive: -59.1% |

7 compounds drawn at random from those above:

| SMILES | activity change, negative = inhibition |
| --- | --- |
| CCN(CC)CCn1c(=N)n(CC(=O)c2ccc(Br)s2)c2ccccc21 | active: -97.4% |
| O=C(O)C1CCN(C(=O)CSc2nc3cc(Cl)ccc3c(=O)n2Cc2ccccc2)CC1 | inactive: -31.2% |
| Fc1ccc(CNC(=S)Nc2ccccc2Cl)cc1 | inconclusive: -40.6% |
| Cc1cccc(C)c1N1CCN(c2n[nH]c(N)n2)CC1 | inconclusive: -45.8% |
| CCCCc1nc2ccccc2c(N)c1CCC (tested in a mixture with another compound) | active: -67.8% |
| Cc1ccc(C)c(OCCn2cc(/C=C(\C#N)C(=O)NCc3ccco3)c3ccccc32)c1 | inactive: 37.2% |
| CCc1ccc(NC(=O)N2CCN(C(=O)C3CCCO3)CC2)cc1 (configuration not stated) | inactive: -3.04% |

(further entries)

| SMILES | activity change, negative = inhibition |
| --- | --- |
| O=C(O)c1ccc(/C=N/NC(=O)c2cc(-c3ccc4c5c(cccc35)CC4)n[nH]2)cc1 | inconclusive: -59.4% |
| O=C(N/N=C1\CCCCc2ccccc21)c1ccccn1 | inactive: 24.3% |
| COc1cc(/C=N/NC(=O)CCn2c3ccccc3c3ccccc32)ccc1O | inconclusive: -56.9% |
| CCN(CC)S(=O)(=O)c1cc(NC(=O)Cc2n[nH]c(=O)c3ccccc23)ccc1C | inconclusive: -58% |
| CC[N+]1=C(C)C(C)(C)c2cc(C)ccc21 | active: -94.3% |
| CC(C)NC(=S)N(C)C1(c2ccccc2Cl)CCCCC1=O (configuration not stated) | inconclusive: -45% |
| O=C(O)CCCCCn1c(O)c(C=C2N=c3ccccc3=N2)sc1=S | active: -80.1% |
| Cc1c(P(=S)(c2ccccc2)c2ccccc2)[n+]2ccccc2n1C | active: -79.3% and active: -63.9% |
| Cc1cc(NC(=O)C2CCCCC2)ccc1NC(=O)c1ccccc1Cl | inconclusive: -54.5% |
| CC(=O)Nc1cc[n+](C(C)C(=O)c2ccc(Br)cc2)cc1 (configuration not stated) | inconclusive: -51.8% |
| Cn1c(=NC(=O)C2CCN(S(=O)(=O)c3cccs3)CC2)sc2ccccc21 | inconclusive: -40.6% |
| C1=CCN(Cc2ccccc2)C1 | inconclusive: -56.1% |
| CCC(C)c1ccc(NC(=O)C2CCN(c3ccc(C(F)(F)F)cn3)CC2)cc1 (configuration not stated) | active: -60.4% |
| N/C(=N\OC(=O)Cc1cccs1)c1ccc(Cl)cc1 | inactive: 30.5% |
| CC(C)(C)NC(=S)NCc1ccco1 | inconclusive: -40.4% |
| Cc1cc(NC(=O)CCC(=O)N(CC(=O)NCC2CCCO2)c2ccc(C)c(C)c2)no1 (configuration not stated) | inactive: -4.06% |
| CCOC(=O)c1c(C)[nH]c(C(=O)Cn2c(=O)c3c(ncn3CC)n(Cc3ccccc3)c2=O)c1C | inactive: -3.56% |
| O=C(COc1ccccc1-c1ccccc1)N/N=C/c1ccc2ccccc2c1 | active: -100% |
| O=C(COC(=O)c1ccc2ccccc2n1)NCc1ccccc1 | inconclusive: -47.5% |
| Cc1nc(-c2c(C(F)(F)F)noc2-c2ccc(O)cc2O)cs1 | active: -90.1% |
| O=c1[nH]c2ccccc2n1C1CCN(C(c2ccccc2OC(F)(F)F)c2nnnn2-c2ccc3c(c2)OCCO3)CC1 (configuration not stated) | active: -106% |
